PubChem BioAssay AID504804 | Drosophila RNAi Screening Center, 2011
The deposit covers about 19,000 reagents; this is an unselected part of those that have a named target and a result. Over the whole deposit, 47 (0.25%) are marked active. 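Signals are raw, not normalised; exact z-scores behind calls not deposited; actives needed confirmation, so some wells reaching 2 SD are inactive.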 Names joined by + are all predicted targets of the reagent.

- Test: 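dsRNAs that improve Kc cell survival under doxorubicin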 (primary screen)
- System: Drosophila Kc cells
- Knock-down reagent: long dsRNA against Drosophila genes, 0.5 µg dsRNA per well
- Timing: 96 h (48 h knock-down, then 48 h drug)
- Treatment: doxorubicin 5 µg/ml for 48 h, added 48 h after dsRNA
- Measured: 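Luminescent ATP counts per replicate, not normalised, reflecting viable cells after 48 h dsRNA knock-down followed by 48 h of 5 µg/ml doxorubicin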
- Reading the numbers: raw ATP luminescence: higher = more viable cells, protection from doxorubicin
- Hit rule: 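z-score of 2 or more over plate mean in both duplicates, retained only when retests and separate dsRNAs confirm the protection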

no.	target gene	amplicon	raw ATP luminescence, replicate 1	raw ATP luminescence, replicate 2	call
1	CG3625	DRSC00008	1.61e5	2.19e5	inactive
2	CG3625	DRSC00621	97730	76150	inactive
3	org-1 (optomotor-blind-related-gene-1)	DRSC18810	9580	10300	inactive
4	Cdk12 (Cyclin-dependent kinase 12)	DRSC11836	24893	20833	inactive
5	NimC3 (Nimrod C3)	DRSC03556	72143	80713	inactive
6	CG4301	DRSC19886	3.41e5	3.55e5	inactive
7	dpr16 (defective proboscis extension response 16)	DRSC12217	70370	86330	inactive
8	dpr16 (defective proboscis extension response 16)	DRSC12249	1.43e5	1.75e5	inactive
9	CG32988	DRSC02692	32937	52673	inactive
10	CG3769	DRSC02723	45203	81457	inactive
11	CG14102	DRSC10103	61010	67033	inactive
12	CG15484	DRSC02494	66490	62760	inactive
13	CG1998	DRSC19829	3.81e5	4.26e5	inactive
14	CG15140	DRSC02440	74690	80607	inactive
15	Art7 (Arginine methyltransferase 7)	DRSC04588	36913	49433	inactive
16	Mkp + CG34140	DRSC08585	54180	61127	inactive
17	Enoph (Enolase-phosphatase)	DRSC12201	63800	66707	inactive
18	CG4286	DRSC04459	51153	44630	inactive
19	CG17786	DRSC15270	63330	69500	inactive
20	Sin1 (SAPK-interacting protein 1)	DRSC05965	55610	40600	inactive
21	Gart (GART trifunctional enzyme)	DRSC03481	31590	37027	inactive
22	CG9399	DRSC16488	65423	61773	inactive
23	CG10026	DRSC02010	60657	54790	inactive
24	Zdhhc8 (Zinc finger DHHC-type containing 8)	DRSC18044	2.44e5	2.65e5	inactive
25	Zdhhc8 (Zinc finger DHHC-type containing 8)	DRSC18122	3.80e5	3.46e5	inactive
26	CG14110	DRSC10113	80653	79340	inactive
27	Upf3	DRSC04092	79177	65747	inactive
28	CG15657	DRSC04248	31203	36713	inactive
29	qin	DRSC14782	70050	52980	inactive
30	CG13385	DRSC02259	39023	81497	inactive
31	Kul (Kuzbanian-like)	DRSC15404	61140	45030	inactive
32	D19B	DRSC11134	93500	83603	inactive
33	CG8087	DRSC16375	76170	60930	inactive
34	Cen (Centrocortin)	DRSC02704	78997	62560	inactive
35	Ufsp2 (UFM1 specific peptidase 2)	DRSC10231	32730	26580	inactive
36	Tsp42Ep (Tetraspanin 42Ep)	DRSC06871	73290	66717	inactive
37	fau	DRSC12816	62983	54183	inactive
38	fau	DRSC12817	69803	69563	inactive
39	fau	DRSC16943	57550	21890	inactive
40	fau	DRSC16944	54143	49603	inactive
41	fau	DRSC16945	64253	56117	inactive
42	ear (ENL/AF9-related)	DRSC15675	46417	22387	inactive
43	Msp300 (Muscle-specific protein 300 kDa)	DRSC00854	2.99e5	2.69e5	inactive
44	Msp300 (Muscle-specific protein 300 kDa)	DRSC00856	3.01e5	3.03e5	inactive
45	Msp300 (Muscle-specific protein 300 kDa)	DRSC00857	2.91e5	2.71e5	inactive
46	Msp300 (Muscle-specific protein 300 kDa)	DRSC00858	2.81e5	2.72e5	inactive
47	Msp300 (Muscle-specific protein 300 kDa)	DRSC02360	21627	30873	inactive
48	Msp300 (Muscle-specific protein 300 kDa)	DRSC03369	95383	86570	inactive
49	Msp300 (Muscle-specific protein 300 kDa)	DRSC03370	26737	27217	inactive
50	CG8673	DRSC03105	40753	86060	inactive
51	CG5418	DRSC02857	68217	83047	inactive
52	Ho (Heme oxygenase)	DRSC14939	62943	31980	inactive
53	140up (upstream of RpII140)	DRSC12634	47960	27113	inactive
54	Smyd4-3 (SET and MYND domain containing, class 4, member 3)	DRSC07041	61990	68213	inactive
55	Obp19c (Odorant-binding protein 19c)	DRSC20528	2.65e5	2.67e5	inactive
56	CG7115	DRSC02000	35757	62090	inactive
57	cni (cornichon)	DRSC03512	48807	70920	inactive

As entered above.
Sin1 (SAPK-interacting protein 1) [DRSC05965], raw ATP luminescence, replicate 1 = 55610
For “call”, Msp300 (Muscle-specific protein 300 kDa) [DRSC02360] is entered as inactive
CG3625 [DRSC00621], raw ATP luminescence, replicate 2 → 76150
